This is an account of results in article PMC6868150.

This data set has as its system GST-MZD (Zn-finger domains of Mamo). In words: EMSA. Conditions: 20 mM HEPES pH 7.6, 1 mM EDTA, 10 mM (NH4)2SO4, 1 mM DTT, 0.2% Tween20, 30 mM KCl, 1 ug poly[d(I-C)], 0.1 ug poly-L-lysine; 60 ng protein, 30 fmol probe; 15 min, 25 C; recombinant protein; protein details: N-terminal GST (pGEX); label: DIG.

The exact form of at least one protein or probe is not confirmed.

In the case of “ATTTGTTTTTCCTGCGTTGCCTGCTGAGT (double strand) [vas-A]”, the binding result is on record as “binds”.
